Some of the results follow. These are further read-outs of the screen, such as a control signal, another cell line or another target. No call is given for them. The list favours compounds with an active or inconclusive main result. For part of these data: Potencies come from curve fits of mixed quality, noted in brackets.

Protein sequences, listed by entry. Tags and fused reporters are not part of them. Lines headed by an entry give the natural chain unless they say otherwise; changes in a name come on top.
UniProt P50135: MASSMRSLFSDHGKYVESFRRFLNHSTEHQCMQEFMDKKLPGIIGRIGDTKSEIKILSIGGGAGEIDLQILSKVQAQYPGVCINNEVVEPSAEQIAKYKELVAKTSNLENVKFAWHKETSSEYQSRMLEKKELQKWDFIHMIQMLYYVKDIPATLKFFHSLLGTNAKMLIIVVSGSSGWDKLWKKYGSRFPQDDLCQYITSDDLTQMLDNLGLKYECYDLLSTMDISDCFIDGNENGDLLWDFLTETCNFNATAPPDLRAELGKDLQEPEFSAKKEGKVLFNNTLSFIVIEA
UniProt P40261: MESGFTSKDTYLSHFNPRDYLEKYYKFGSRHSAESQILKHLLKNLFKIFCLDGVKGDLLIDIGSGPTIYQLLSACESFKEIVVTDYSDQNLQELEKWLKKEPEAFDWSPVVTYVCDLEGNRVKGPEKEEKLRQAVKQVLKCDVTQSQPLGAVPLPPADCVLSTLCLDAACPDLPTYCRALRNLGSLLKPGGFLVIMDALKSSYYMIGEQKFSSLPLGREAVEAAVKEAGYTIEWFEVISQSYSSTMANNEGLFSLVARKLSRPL

The nature of test [1]: Validation of Assay for Modulators of Lamin A Splicing (AID 1459). The settings on record: Lamin A splicing dual RFP/GFP fluorescence reporter, ratio. In outline:
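Readout: ratio of GFP (500-530 nm) to RFP (575-640 nm) total object intensity by 488 nm laser-scanning cytometry after 48 hrs. Cells were HeLa S3 clones carrying lamin A-EGFP minigene plus DsRed2 viability reporter; vehicle 0.5% DMSO final.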

The nature of test [2]: qHTS Assay for Modulators of Human Peripheral Myelin Protein 22 (PMP22) Expression/Activity (AID 1967). The following applies: Cell-based PMP22 reporter, dual-color luciferase ratio. The method, boiled down: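 Mouse MSC80 Schwann line, Pmp22 promoter–CBG68 reporter, EF-alpha–CBR internal control. 24h compound exposure, 37 °C/5% CO2, DMEM + 10% FBS. Readout: corrected green/red luminescence ratio, normalized to untreated cells; concentration-response curves fitted and classified.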

A short description of test [3]: qHTS Validation Assay to Find Inhibitors of Chronic Active B-Cell Receptor Signaling (AID 485345). The settings on record: ABC-DLBCL cells, chronic BCR signaling reporter. The method, boiled down:
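TMD8 ABC-DLBCL cells with dox-inducible green luciferase–IκBα fusion and red native luciferase; compounds 46 uM–3 nM, 4 h at 37C with doxycycline in 0.5% FBS IMDM. Green/red ratio normalized to basal and 10 uM MG-132.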
On the technique in general: Quantitative high-throughput screening tests each substance at several concentrations.

Test [4] is described as follows: Nrf2 qHTS screen for inhibitors: Validation (AID 493153). The settings on record: A549 ARE-Fluc reporter, 18-24 h; AC50: CellTiter-Fluor fluorescence read, measured here: cytotoxicity CellTiter-Fluor AC50; viability change: measured here: cytotoxicity max response. In outline:
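Dose-response validation uses reporter A549 cells with firefly luciferase under an antioxidant response element. Compounds stay on cells 18-24 h at 37°C, and luminescence indicates Nrf2-driven transcription.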

Test [5] can be described thus: qHTS Assay for Lipid Storage Modulators (AID 1519). The settings on record: Drosophila S3 cells, BODIPY lipid droplet/cell ratio, laser cytometry, cells loaded with oleic acid. The method, boiled down: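 Cells seeded at 5,000 per well were treated with compounds over a concentration series and loaded with oleic acid (400 uM, as added). Lipid droplet fluorescence (488 nm excitation, 500-530 nm channel) was read by laser-scanning cytometry and normalized to 20 uM Triacsin C.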

Test [6] in a line: NCATS anti-infectives library activity on the primary C. elegans qHTS viability assay (AID 1745855). The following applies: C. elegans worm area imaging. In outline:
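Viability is taken from GFP fluorescence of PE254-GFP-FLuc C. elegans imaged by laser cytometry over 7 days. Ten L1 worms per well grow at 21 °C on TOP10 E. coli capsules with titrated compound; levamisole marks toxicity.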

The nature of test [7]: qHTS for identification of novel therapeutic agents for treatment of microphthalmiaassociated transcription factor (MiT) renal cell carcinoma (RCC) (AID 1963991).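 For z-score: curves scaled with 100% = DMSO viability and 0% = empty wells.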 The settings on record: CellTiter-Glo, 48 h; for z-score: stronger effect = lower value. The method, boiled down:
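UOK109/UOK124/UOK145 (TFE3 fusions, three partners); 500 cells/well; MIPE v4.0, 1912 cpds, 11 conc.; 48 h, 37 C; CellTiter-Glo, 15 min RT; lum. Norm.: DMSO 100%, empty 0%.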

For test [8], the target named is Histamine N-methyltransferase (Homo sapiens) (UniProt P50135). Kind of test: Confirmatory Screen for Target Class Profiling of Small Molecule Inhibitors of Methyltransferases (AID 1745852). The settings on record: MTase-Glo luminescence, SAH detection, recombinant enzyme; measured here: HNMT inhibition potency.
Test [9] is described as follows: qHTS assay for small molecule antagonists of peroxisome proliferator-activated receptor delta signaling (AID 588535).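 Note: cells co-treated with a PPAR-delta agonist as stimulator during compound exposure.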 The following applies: HEK293T PPARd-UAS-bla, beta-lactamase FRET ratio, 18 h; 460 nm channel. In outline:
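GeneBLAzer PPAR-delta-UAS-bla HEK293T cells in medium with 2% charcoal/dextran FBS were preincubated 5 hrs at 37 C, then given compounds, incubated 18 hrs at 37 C, and read by CCF4 beta-lactamase fluorescence; IC50 from Hill fits.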

The nature of test [10]: qHTS assay for small molecule antagonists of vitamin D receptor signaling (AID 588541). The following applies: HEK293T VDR-UAS-bla, beta-lactamase ratio, antagonist mode; measured here: W460 blue channel (cell viability).
The nature of test [11]: qHTS assay for small molecule agonists of retinoid X receptor alpha signaling (AID 588544). The settings on record: HEK293T RXRa-UAS-bla, beta-lactamase reporter, 18 h; 530 nm emission.
Test [12] can be described thus: Cell-based coincidence reporter assay to measure PMP22 gene transcription in S16 Pmp22-F2sN cells - Confirmatory screen (AID 1508646). The following applies: S16 Schwann cells Pmp22-F2sN, dual luciferase, 24 h. In outline: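 S16 Schwann cells carrying a bioluminescent reporter in the Pmp22 3' UTR (Pmp22-F2sN) were treated with compounds for 24 h at 37C, then lysed; FLuc and then NLuc luminescence were read sequentially with a dual-luciferase kit on a CCD imager.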

Test [13] deals with Nicotinamide N-methyltransferase (Homo sapiens) (UniProt P40261). Kind of test: Confirmatory Screen for Target Class Profiling of Small Molecule Inhibitors of Methyltransferases (AID 1745852). The settings on record: MTase-Glo luminescence, SAH detection, recombinant enzyme; measured here: NNMT inhibition potency.
Setting [14] is: measured here: green reporter channel AC50, mouse Pmp22 promoter in mouse Schwann cells.
The mark [15] stands for this setting: measured here: red reporter channel AC50, EF-alpha promoter control reporter in MSC80 mouse Schwann cells.
The mark [16] stands for this setting: measured here: CBR control luciferase (viability counter).
Where [17] appears, read: measured here: cell count channel max response.
Where [18] appears, read: measured here: lipid channel max response.
The mark [19] stands for this setting: measured here: FLuc reporter channel.

On to `CCN1C(=O)C=CC1=O`, for which the AC50 (usually the midpoint of the concentration-response curve, whichever way the signal moves) in test [1] (measured here: GFP channel) is 11.2 µM [falling, partial curve]; in test [2] (setting [14]), 42.6 µM [falling, full curve]; in test [2] (setting [15]), 42.6 µM [falling, partial curve].
On to `CC#C[C@]1(O)CC[C@H]2C3CCC4=CC(=O)CCC4=C3[C@@H](c3ccc(N(C)C)cc3)C[C@@]21C` (some centres undefined), for which the AC50 is 20 µM [falling, partial curve, poor fit] in test [1] (measured here: RFP channel); 26.9 µM [falling, full curve] in [2] (setting [14]); 30.1 µM [falling, full curve] in [2] (setting [15]).
Regarding `CNCCNS(=O)(=O)c1cccc2cnccc12`, the half-maximal activity concentration (AC50) in test [1] (measured here: RFP channel) was 20 µM [falling, partial curve]; in test [2] (setting [14]) it was 30.1 µM [rising, partial curve, poor fit]; in test [3] (setting [16]), 18.4 µM [falling, partial curve, poor fit]. In addition, in test [4], the viability change is -6.25%.
Consider `COc1cc2nc(N3CCN(C(=O)C4COc5ccccc5O4)CC3)nc(N)c2cc1OC` (centres undefined), for which the AC50 in test [1] (measured here: GFP channel) was 35.5 µM [rising, single point]; in test [2] (setting [14]) it was 33.8 µM [falling, full curve]; in test [2] (setting [15]), 26.9 µM [falling, full curve]; in [3] (setting [16]), 2.59 µM [rising, full curve]; in test [6] (day 7, measured here: worm number), 25.8 µM [falling, partial curve, poor fit]; in test [6] (day 7, measured here: worm area, day 3), 5.78 µM [falling, partial curve, poor fit]. The AC50 is 25.8 µM [falling, single point] in test [6] (day 7, measured here: worm number, day 3); 23.5 µM [falling, partial curve] in [7] (TFE3-RCC viability, measured here: UOK124 cell viability); 29.6 µM [falling, single point] in test [7] (TFE3-RCC viability, measured here: UOK145 cell viability). The figures for the max response in [5] (setting [17]) and in [5] (setting [18]) were 53.9% and 54.6%, respectively. The z-score was determined as 0.449 in [7] (TFE3-RCC UOK109 viability, measured here: UOK109 Z-AUC); 0.267 in [7] (TFE3-RCC viability, measured here: UOK124 Z-AUC); 0.654 in test [7] (TFE3-RCC viability, measured here: UOK145 Z-AUC).
With `Cc1c(OCC(F)(F)F)ccnc1CS(=O)c1nc2ccccc2[nH]1` (centres undefined), the AC50 in test [1] (measured here: GFP channel) was 12.6 µM [falling, partial curve, poor fit]. Moreover, the results for the max response in test [5] (setting [17]) and in [5] (setting [18]) were -23.2% and -24.5%, respectively. Further, the IC50 (as a rule, the concentration at which inhibition is half-maximal) in test [8] was 21.7 µM [falling, partial curve].
Consider `CCCc1c(OCCCOc2ccc(OCC(=O)O)cc2)ccc(C(C)=O)c1O`, for which the AC50 in [1] (measured here: GFP channel) is 22.4 µM [rising, single point]; in [10], 14.1 µM [rising, full curve, poor fit]. The max response turned out to be 187% in test [9] and 40.7% in test [11].
For the molecule `CCc1cccc(C)c1NC(=O)c1nc2ccccc2nc1N1CCCCC1`, the AC50 in [12] (measured here: NLuc reporter channel) was 43.2 µM [falling, single point].
For `COc1ccc(NC(=O)N2CCc3c(sc4c3CCCC4)C2c2ccc(F)cc2)cc1` (centres undefined), in test [12] (setting [19]), the AC50 was 5.44 µM [falling, partial curve, poor fit].
As to `CN1CCc2c(cc(O)c(O)c2Cl)C(c2cccc(Cl)c2)C1` (centres undefined), the AC50 is 35.5 µM [falling, single point] in test [1] (measured here: GFP channel); 21.3 µM [rising, full curve] in test [2] (setting [14]); 47.8 µM [falling, partial curve, poor fit] in test [2] (setting [15]).
Take `CC#CCOC(=O)c1c(C)nc2sc3c(c2c1N)CCC(O)C3` (centres undefined): the AC50 in [1] (measured here: GFP channel) is 1.41 µM [rising, partial curve, poor fit]; in test [2] (setting [15]), 42.6 µM [falling, partial curve]. Besides, the viability change in test [4] was -4.92%.
With `CC1CNCCN1S(=O)(=O)c1cccc2cnccc12` (centres undefined), the AC50 in test [1] (measured here: RFP channel) was 20 µM [falling, single point]; in test [2] (setting [14]), 95.3 µM [falling, single point]; in [2] (setting [15]), 60.1 µM [falling, partial curve]; in [3] (setting [16]), 18.4 µM [falling, partial curve].
With `O=c1[nH]c2ccccc2c2ccccc12`, the AC50 in test [1] (measured here: GFP channel) was 15.8 µM [rising, single point]; in test [2] (setting [15]) it was 67.5 µM [falling, partial curve]; in test [3] (setting [16]) it was 5.17 µM [falling, partial curve, poor fit]. Also, the viability change in test [4] was -14.9%.
In the case of `CCCCCCCCCCCCCCCCCCOC[C@H](COP(=O)([O-])OCC[N+](C)(C)C)OC`, the AC50 is 35.5 µM [rising, single point] in test [1] (measured here: GFP channel) and 25.9 µM [rising, single point] in [3] (setting [16]).
For `Cc1ccc(S(=O)(=O)Nc2cc3c(cc2N2CCOCC2)n(C)c(=O)n3C)c(C)c1`, in [12] (setting [19]), the AC50 was 19.3 µM [falling, partial curve].
In the case of `Nc1c(S(=O)(=O)O)cc(Nc2ccc(Nc3nc(Cl)nc(Nc4ccc(S(=O)(=O)O)cc4)n3)c(S(=O)(=O)O)c2)c2c1C(=O)c1ccccc1C2=O`, the AC50 is 25.1 µM [falling, partial curve] in [1] (measured here: RFP channel); 75.7 µM [falling, partial curve] in [2] (setting [14]); 30.1 µM [falling, partial curve] in test [2] (setting [15]); 23.1 µM [falling, single point] in test [3] (measured here: CBG/CBR ratio read-out); 18.4 µM [falling, single point] in [3] (setting [16]); 20.6 µM [falling, partial curve, poor fit] in test [4]. For the same molecule, in test [4], the viability change was -25.8%.
As for `COc1ccc(C2CC(=O)N(CC(=O)Nc3cccc(C)c3C)c3ccccc3S2)cc1OC` (centres undefined), the AC50 in test [12] (setting [19]) is 21.7 µM [falling, partial curve].
With `C[C@@]1(C2CCCC2)Cc2cc(OCC(=O)O)c(Cl)c(Cl)c2C1=O`, the AC50 in test [1] (measured here: GFP channel) was 35.5 µM [rising, single point]. For the same molecule, the max response is 42.5% in test [5] (setting [17]) and 44.6% in test [5] (setting [18]). For the same molecule, the IC50 in test [8] is 24.3 µM [falling, single point]; in [13], 24.3 µM [falling, partial curve].
On to `N=C(N)c1ccc(OCCCCCOc2ccc(C(=N)N)cc2)cc1` (tested in a mixture with another compound), for which the AC50 in test [1] (measured here: GFP channel) was 2.51 µM [falling, partial curve]; in test [2] (setting [14]), 37.9 µM [falling, full curve]; in [2] (setting [15]) it was 33.8 µM [falling, full curve]. Moreover, the max response in test [5] (setting [17]) was determined as 54.8%; in [5] (setting [18]) it was 57.3%.
